US4518711A, “Conformationally constrained cyclic enkephalin analogs with delta receptor specificity” (Gibson-Stephens Institute, priority 1983, dated 1985)
At least one peptide structure holds a part that was inferred or is arguable (an end, a ring closure or a residue).

Protein sequences, listed by entry. Tags and fused reporters are not part of them.
UniProt P32300, whole entry: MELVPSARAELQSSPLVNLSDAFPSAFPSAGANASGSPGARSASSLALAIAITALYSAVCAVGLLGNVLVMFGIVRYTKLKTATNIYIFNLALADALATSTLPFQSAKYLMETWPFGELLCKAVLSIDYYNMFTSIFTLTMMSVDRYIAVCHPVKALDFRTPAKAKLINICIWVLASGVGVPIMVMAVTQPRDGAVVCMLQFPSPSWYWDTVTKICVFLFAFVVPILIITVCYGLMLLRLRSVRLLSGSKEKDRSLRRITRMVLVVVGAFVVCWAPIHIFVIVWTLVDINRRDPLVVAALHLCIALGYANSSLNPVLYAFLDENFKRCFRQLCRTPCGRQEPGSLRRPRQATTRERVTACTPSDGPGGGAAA
UniProt P33533, whole entry: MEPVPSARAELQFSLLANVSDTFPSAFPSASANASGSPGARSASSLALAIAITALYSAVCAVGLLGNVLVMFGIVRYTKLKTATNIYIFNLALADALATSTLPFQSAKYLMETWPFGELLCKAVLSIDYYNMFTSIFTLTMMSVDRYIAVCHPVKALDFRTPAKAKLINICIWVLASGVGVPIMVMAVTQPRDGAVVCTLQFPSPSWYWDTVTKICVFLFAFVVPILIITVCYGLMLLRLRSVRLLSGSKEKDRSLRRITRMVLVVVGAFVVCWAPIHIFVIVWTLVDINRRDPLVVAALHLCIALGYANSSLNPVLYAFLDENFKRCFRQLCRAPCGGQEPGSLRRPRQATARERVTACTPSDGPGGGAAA

What was measured:
[1] = target: T1, delta type opiate receptors (mouse vas deferens preparation) (Mus musculus, UniProt P32300); assay: Mouse vas deferens (MVD) assay, inhibition of electrically stimulated contractions; format: cell-based; details: delta receptor selectivity, GPI versus MVD
T1 construct: The mouse vas deferens was prepared following the method of Hughes et al; from tissue; host or cells: mouse vas deferens
Description: These assays tested the degree of electrically stimulated contractions in the MVD and GPI tissues.
The mouse vas deferens was prepared following the method of Hughes et al. One pair of vasa deferentia was used in each experiment.

[2] = target: T2, delta receptors (rat brain membrane preparations) (Rattus norvegicus, UniProt P33533); assay: Rat brain binding assay, displacement of [3H][D-Ala2, D-Leu5]enkephalin; details: delta receptor selectivity in rat brain binding
T2 construct: Whole brains with cerebellum removed were homogenized in 100 volumes of Tris-HCl buffer; from tissue; host or cells: rat whole brain (cerebellum removed) membrane homogenate

SMILES	IC50 (GPI)/IC50 (MVD) [1]	IC50 (NAL)/IC50 (DADLE) [2]
CSCC[C@H](NC(=O)[C@H](Cc1ccccc1)NC(=O)CNC(=O)[C@@H](C)NC(=O)[C@@H](N)Cc1ccc(O)cc1)C(N)=O [[D-Ala^2, Met^5]Enkephalinamide, [D-Ala^2, Met^5]Enkephalinamide]	0.59	
CC(C)C[C@H](NC(=O)[C@H](Cc1ccccc1)NC(=O)CNC(=O)[C@H](NC(=O)[C@@H](N)Cc1ccc(O)cc1)[C@H](C)O)C(=O)N[C@H](C(=O)O)[C@@H](C)O [[D-Thr^2, Leu^5, Thr^6]Enkephalin, [D-Thr^2, Leu^5, Thr^6]enkephalin]		5.7
